# According to patent US20240059740A1 (PRE[…] INC., priority 2020, published 2024):
# Assay: general procedure: Fmoc solid-phase peptide synthesis; Rink amide resin (0.47 meq/g); Oxyma Pure and DIPCDI
# Settings: whole synthesis
substance,measurement,value
Leu-Pro-c(SSA*-Ala-Leu-Asn-Asp-Glu)-Arg-NH2,final HPLC purity,99.7%
